Data as given in PubChem BioAssay AID1259254 (NCATS, 2017).

- Test: 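Genome-wide screen for genes that prevent DNA re-replication in cancer cells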 (primary screen)
- System: human HCT116 colorectal cancer cells
- Reagents: single siRNA against human genes
- Time to read-out: 3 days
- Read-out: 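Nuclei stained with Hoechst and imaged; cell-cycle phase assigned by DNA content; G2 share scaled per plate, non-targeting siRNA 0%, GMNN siRNA 100%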
- Scale: G2 robust z-score: higher = more G2 cells, more excess DNA replication
- Hit rule: 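An siRNA counts as active if its G2 robust z-score lies at least 5 MADs above the screen median; here such calls match roughly 38% of GMNN control or more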
In all, the deposit lists about 59,000 reagents; this is a part drawn at random. In the full data, about 1,550 (2.6%) were called active. 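G2 share is only a proxy for re-replication; each gene was hit by three separate siRNAs, and active genes were retested.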 The numbers tell different reagents against one gene apart. Further read-outs or replicates are left out here. Not given: the amount of reagent.

no.	Target gene	siRNA no.	G2 robust z-score	Call
1	MSH2	1	-0.179	inactive
2	MSH2	2	-0.914	inactive
3	MSH2	3	-0.538	inactive
4	STRADB	1	2.26	inactive
5	STRADB	2	-1.24	inactive
6	STRADB	3	-0.345	inactive
7	MSTO1	1	-0.513	inactive
8	MSTO1	2	3.66	inactive
9	MSTO1	3	0.153	inactive
10	LOC100420746	1	0.896	inactive
11	LOC100420746	2	1.64	inactive
12	LOC100420746	3	-0.144	inactive
13	SEM1	1	-0.244	inactive
14	SEM1	2	-0.382	inactive
15	SEM1	3	0.0588	inactive
16	SEM1	4	0.565	inactive
17	SEM1	5	-0.979	inactive
18	SEM1	6	0.156	inactive
19	MRPL33	1	-0.698	inactive
20	MRPL33	2	0.412	inactive
21	MRPL33	3	-0.315	inactive
22	TBC1D14	1	0.83	inactive
23	TBC1D14	2	-1.12	inactive
24	TBC1D14	3	0.526	inactive
25	POU2F2	1	-0.633	inactive
26	POU2F2	2	-0.455	inactive
27	POU2F2	3	-0.4	inactive
28	FAXDC2	1	-0.0575	inactive
29	FAXDC2	2	0.387	inactive
30	FAXDC2	3	0.715	inactive

No new results follow: an excerpt of the list.
no.	Target gene	siRNA no.	G2 robust z-score	Call
21	MRPL33	3	-0.315	inactive
22	TBC1D14	1	0.83	inactive
23	TBC1D14	2	-1.12	inactive
